Measured values from patent US20220289816A1, “IMMUNOTHERAPY WITH B*07 RESTRICTED PEPTIDES AND COMBINATION OF PEPTIDES AGAINST CANCERS AND RELATED METHODS” (Immatics Biotechnologies GmbH, priority 2018, published 2022).
For some assays here: Expression values are those of the mRNA of the gene that encodes the peptide; a gene is named only where it was looked up.

What was measured:
[1] = system: source genes of the peptides (mRNA); assay: Expression profiling of genes encoding the peptides (RNAseq of tumor and normal tissue RNA); parameters: species or system human; conditions: for Gene Expression in tumor samples: Highly over-expressed (++): tumor entities in which the source gene of the peptide is highly over-expressed compared to a panel of normal tissues (RNAseq); for Gene Expression in tumor samples: over-expressed (+): tumor entities in which the source gene of the peptide is over-expressed compared to a panel of normal tissues (RNAseq)
[2] = system: tumor tissue samples and normal tissue samples (HLA-B*07 positive); assay: Identification and quantitation of tumor associated peptides presented on the cell surface (HLA immunoprecipitation, label-free LC-MS); parameters: species or system human; conditions: Table 8a; cancer entities on which the peptide was found presented (abbreviations in table head)

| Substance | Gene Expression in tumor samples: Highly over-expressed (++) [1] | Peptide Presentation on cancer entities [2] | Gene Expression in tumor samples: over-expressed (+) [1] |
| --- | --- | --- | --- |
| 92: peptide found in ENPP3 (gene looked up) (TSPLPPTV; listed as Homo sapiens) [compound 92] | RCC | AML, HNSCC | – |
| 106: peptide found in NMUR2 (gene looked up) (APFHIDRLF; listed as Homo sapiens) [compound 106] | – | OC, RCC | NSCLCsquam, PACA, UEC |
| 119: peptide found in MYCN (gene looked up) (KATEYVHSL; listed as Homo sapiens) [compound 119] | AML, UEC | CRC, UEC | GBM, MEL, OC, SCLC, UBC |
| 128: peptide found in LOXL4 (gene looked up) (SPPATLFLFLL; listed as Homo sapiens) [compound 128] | MEL | OSCAR | CCC |
| 139: peptide found in NMUR2 (gene looked up) (LVILQHQAM; listed as Homo sapiens) [compound 139] | – | RCC | PACA, UEC |
| 142: peptide found in QRFPR (gene looked up) (HPFKMKWQY; listed as Homo sapiens) [compound 142] | RCC | RCC | OSCAR |
| 146: peptide found in PTPRZ1 (gene looked up) (SPTRGSEF; listed as Homo sapiens) [compound 146] | GBM | GBM | – |
| 147: peptide found in CTLA4 (gene looked up) (HVAQPAVVL; listed as Homo sapiens) [compound 147] | CLL | BRCA, HCC | NHL |
| 149: peptide found in NAT1 (gene looked up) (SPSSVFTSK; listed as Homo sapiens) [compound 149] | BRCA | BRCA | – |
| 152: peptide found in PTPRZ1 (gene looked up) (SSASFSSELFRH; listed as Homo sapiens) [compound 152] | GBM | BRCA, CCC, OSCAR, PACA, SCLC, UEC | – |
| 167: peptide found in DNMT3B (gene looked up) (NVNPARKGL; listed as Homo sapiens) [compound 167] | AML | AML | OC, OSCAR |
| 181: peptide found in ADAM12 (gene looked up) (LPVSPARAL; listed as Homo sapiens) [compound 181] | BRCA, HNSCC, OSCAR | HNSCC, NSCLCadeno, NSCLCsquam, OSCAR | CCC, CRC, GBC, GBM, GC, MEL, NHL, NSCLCadeno, NSCLCother, NSCLCsquam, OC, PACA, UBC, UEC |
| 182: peptide found in ADAM12 (gene looked up) (RPLPVSPARAL; listed as Homo sapiens) [compound 182] | BRCA, HNSCC, OSCAR | BRCA, NSCLCadeno, NSCLCsquam | CCC, CRC, GBC, GBM, GC, MEL, NHL, NSCLCadeno, NSCLCother, NSCLCsquam, OC, PACA, UBC, UEC |
| 189: peptide found in APOB (gene looked up) (QPQCSTHIL; listed as Homo sapiens) [compound 189] | HCC | CCC, HCC, OSCAR | – |
